# From PubChem BioAssay AID540256 (National Center for Advancing Translational Sciences (NCATS), 2011)
# About 3,700 (1.2%) of roughly 300,000 compounds were called active. Inconclusive means that the source gave no clear call. Such entries were picked first, then a sample of the others. The call rests on the fitted dose curve; tested in HEK293 cells. Potencies beside an inconclusive call are fits to weak or partial responses and may not hold up.
# Experiment: qHTS for Inhibitors of binding or entry into cells for Lassa Virus; further: nearly all actives have a fitted effect of over 50% in size
# Conditions: Lassa virus pseudotype entry inhibition, cell reporter; series mostly up to 37.9 µM
# Potency means the concentration at half of the fitted maximal effect.
row,SMILES,Potency
1,CC(C)(C)C(=O)Nc1ccc(S(=O)(=O)N2CCC(c3nc4ccccc4[nH]3)CC2)cc1,"inconclusive: 1.26 µM [inhibitor, single point]"
2,Cc1ccc2nc(CSc3nc(C)cc(C)c3C#N)[nH]c2c1,"inconclusive: 29.1 µM [inhibitor, single point]"
3,CCn1cc(CN2CCC(n3nccc3NC(=O)CCc3ccccc3)CC2)cn1,inactive
4,Cc1cccc(N2CCN(S(=O)(=O)c3ccc4c(c3)C(C(C)C)C(=O)N4)CC2)c1C (configuration not stated),active: 1.26 µM
5,COc1ccc(-c2noc(CCCC(=O)Nc3ccc(C(N)=O)cc3)n2)cc1,"inconclusive: 25.9 µM [inhibitor, single point]"
6,Cc1cccc(Nc2ncc(NC(=O)c3cccc(F)c3)c(Nc3cccc(C)c3)n2)c1,inactive
7,CCCCN1C2=C(C(=O)CC(C)(C)C2)C(c2ccccc2)C2=C1c1ccccc1C2=O (configuration not stated),"inconclusive: 15.8 µM [inhibitor, partial curve, poor fit]"
8,O=C(Nc1ccc(-c2ccccc2)cc1)c1ccco1,inactive
9,O=C(NC(=S)NN1CCOCC1)c1cc(Br)ccc1Cl,"inconclusive: 1.78 µM [activator, partial curve, poor fit]"
10,CC1CCCN(c2ccc(C(=O)NCCc3ccccc3)cn2)C1 (configuration not stated),"inconclusive: 29.1 µM [inhibitor, single point]"
11,Cn1c(-[n+]2c(-c3ccccc3)cc(-c3ccccc3)cc2-c2ccccc2)nc2cc([N+](=O)[O-])ccc21,inactive
12,CCCC(CCC)=NNc1ccc(S(=O)(=O)Nc2ccccc2OC)cc1[N+](=O)[O-],"inconclusive: 14.1 µM [inhibitor, partial curve]"
13,COCCn1c(SCc2cccc([N+](=O)[O-])c2)nc2ccccc2c1=O,"inconclusive: 11.2 µM [inhibitor, partial curve, poor fit]"
14,O=C(NCc1cccnc1)c1ccc(NC(=O)c2ccc(Br)cc2)cc1,"inconclusive: 3.16 µM [inhibitor, single point]"
15,Cc1oc(-c2cccc(Br)c2)[n+]([O-])c1C,"inconclusive: 11.2 µM [activator, partial curve, poor fit]"
16,COc1cc(NC(=O)CC2C(=O)N(c3cccc(C)c3)C(=O)N2Cc2ccco2)cc(OC)c1 (configuration not stated),"inconclusive: 3.55 µM [inhibitor, single point]"
17,Clc1ccc(OCCCc2nc(-c3cccnc3)no2)c(Cl)c1,inactive
18,COc1ccc(S(=O)(=O)c2c(Nc3c(C)cccc3C)sc(C(=O)c3ccc4c(c3)OCO4)c2N)cc1,"inconclusive: 2 µM [inhibitor, partial curve, poor fit]"
19,Cc1ccc(-n2nc3c(=O)n(CC(=O)NC(C)C)nc(C)c3c2C)cc1,"inconclusive: 3.16 µM [activator, single point]"
20,O=C(CCn1c(=O)c2sccc2n(CC(=O)OCc2ccccc2)c1=O)NCc1ccccc1,inactive
21,COc1cccc(N2CCN(S(=O)(=O)c3cccc4nsnc34)CC2)c1,"inconclusive: 5.62 µM [inhibitor, partial curve, poor fit]"
22,O=C(Nc1ccc2oc(-c3cccnc3)nc2c1)c1ccc(-c2cccc(Cl)c2)o1,"inconclusive: 31.6 µM [activator, single point]"
23,COc1cc(/C=N/NC(=O)Nc2ccccc2)ccc1OCCOc1ccccc1C,"inconclusive: 18.3 µM [inhibitor, single point]"

row,SMILES,Potency
1,CCCCn1cnc2c(SCc3cccc(F)c3)nc(N)nc21,inactive
2,C/C(CC(=O)Nc1ccc(Cl)c(C(F)(F)F)c1)=N\NC(=O)c1cccc(O)c1,"inconclusive: 13 µM [inhibitor, partial curve]"
3,COc1ccc(C(=O)NCCSCc2ccccc2Cl)cc1OC,"inconclusive: 0.794 µM [inhibitor, single point]"
4,COc1cccc(Cn2cnc3c(NS(=O)(=O)c4cccc(Cl)c4Cl)c(C)c(C)cc32)c1,"inconclusive: 29.1 µM [inhibitor, single point]"
5,COc1cccc(Nc2nnc(SCC(=O)N3CCOCC3)s2)c1,inactive
6,COc1ccc(N=Cc2c(O)n(CC3CCCO3)c(=O)[nH]c2=O)cc1 (configuration not stated),"inconclusive: 35.5 µM [inhibitor, single point]"
7,CN1CCc2c1nc1ccccc1c2N=C1CCCN1Cc1ccccc1,"inconclusive: 29.1 µM [inhibitor, single point]"
8,CCOC(=O)c1sc(NC(=O)c2ccc(C)s2)cc1C,"inconclusive: 6.31 µM [activator, single point]"
9,CSc1nnc(-c2cc3c(s2)-c2ccccc2CC3)o1,inactive
10,COc1ccc(CCCNC(=O)C2CCC(=O)N(Cc3ccc(Cl)cc3)C2)cc1 (configuration not stated),"inconclusive: 35.5 µM [inhibitor, single point]"
11,CCOc1ccc(Cc2nnc(SCC(=O)Nc3ccccc3)n(N)c2=O)cc1,"inconclusive: 3.16 µM [inhibitor, partial curve, poor fit]"
12,CCn1c(SCC(=O)Nc2nc(-c3ccc(C)cc3)cs2)nnc1-c1ccccc1,"inconclusive: 29.1 µM [inhibitor, single point]"
13,CC(=O)Oc1ccc(-c2nc(-c3cccnc3)no2)cc1,"inconclusive: 35.5 µM [inhibitor, partial curve, poor fit]"
14,CCN=C1NN=C(c2c[nH]c3ccccc23)CS1,"inconclusive: 5.62 µM [activator, single point]"
15,CCN(C(=O)CSc1nnc(-c2cc(OC)c(OC)c(OC)c2)o1)c1ccccc1,inactive
16,COc1cccc(/C=C2\Oc3cc(OCC(=O)N4CCCCC4)ccc3C2=O)c1OC,"inconclusive: 20 µM [inhibitor, partial curve, poor fit]"
17,c1ccc(CN2CCC(Nc3nc(-c4ccccc4)nc4ccccc34)CC2)cc1,"inconclusive: 25.1 µM [inhibitor, single point]"
18,CCN(CC(=O)Nc1ccc2c(c1)OCCO2)CC(=O)Nc1ccc(C)c([N+](=O)[O-])c1,inactive
19,Cc1cc(C)nc(N(C#N)CC(=O)c2ccccc2)n1,"inconclusive: 9.2 µM [inhibitor, partial curve, poor fit]"
20,CC1CC(C)(C)NC(=S)N1CC(=O)NCc1ccc(Cl)cc1 (configuration not stated),"inconclusive: 2.24 µM [activator, single point]"
21,CC1CCCC(C)N1C(=O)COC(=O)c1n[nH]c(=O)c2ccccc12 (configuration not stated),inactive
22,Cc1cc(NC(=O)CSc2nc(-c3cccnc3)ccc2C#N)no1,"inconclusive: 6.31 µM [inhibitor, single point]"
23,COc1ccc(-c2nn(-c3ccccc3)cc2C(=O)N/N=C/c2ccc([N+](=O)[O-])o2)cc1,"inconclusive: 10 µM [inhibitor, partial curve]"

# Another view of some results above.
row | SMILES | Potency
11 | CCOc1ccc(Cc2nnc(SCC(=O)Nc3ccccc3)n(N)c2=O)cc1 | inconclusive: 3.16 µM [inhibitor, partial curve, poor fit]
22 | Cc1cc(NC(=O)CSc2nc(-c3cccnc3)ccc2C#N)no1 | inconclusive: 6.31 µM [inhibitor, single point]

# Continuation.

row,SMILES,Potency
1,CC(Oc1ccccc1)C(=O)Nc1ccc(OCc2cc(=O)n3ccsc3n2)cc1 (configuration not stated),inactive
2,CCOC(=O)c1c(S(=O)(=O)N2CCCC(C(=O)Nc3cccc(C#N)c3)C2)c(C)n(C)c1C (configuration not stated),inactive
3,COC(=O)c1ccccc1NC(=O)c1ccc(F)cc1,inactive
4,CCCCCc1ccc(OCCCC[n+]2ccccc2)c(CCCCC)c1,"inconclusive: 20 µM [inhibitor, single point]"
5,COc1ccc(C2NS(=O)(=O)N=C2N)cc1 (configuration not stated),"inconclusive: 6.31 µM [inhibitor, single point]"
6,Cc1sc2nc(CSc3ccccc3)nc(N3CCN(C)CC3)c2c1C,"inconclusive: 32.6 µM [inhibitor, single point]"
7,Cc1cccc(C(=O)NCCCn2ccnc2)c1C,"inconclusive: 2.82 µM [activator, full curve]"
8,Cc1ccc2cc(CCNC(=O)Cc3cccs3)c(=O)[nH]c2c1,inactive
9,O=C1CSC(c2ccccn2)N1c1cccc(Cl)c1 (configuration not stated),inactive
10,CN1CCN(NC(=O)c2cc(-c3cccc(Cl)c3)nc3ccccc23)CC1,"inconclusive: 22.4 µM [inhibitor, single point]"
11,CN(c1ccc(C(=O)Nc2ccccc2C(F)(F)F)cc1)S(C)(=O)=O,"inconclusive: 12.6 µM [activator, single point]"
12,O=C(c1ccc2nc(Cc3ccccc3F)oc2c1)N1CCCC1,active: 6.31 µM
13,O=C(CC(O)c1ccncc1)c1ccccc1O (configuration not stated),"inconclusive: 2.51 µM [activator, single point]"
14,COc1cc(C(Nc2ccccn2)c2ccc3ccc(C)nc3c2O)cc(OC)c1O (configuration not stated),"inconclusive: 22.4 µM [inhibitor, single point]"
15,Cc1cccc(N(C)S(=O)(=O)c2c(C)[nH]c(C)c2C(=O)N2CCCC2)c1,"inconclusive: 3.98 µM [activator, partial curve, poor fit]"
16,Cc1noc(C)c1S(=O)(=O)N1CCCC(C(=O)Nc2ccc(Cl)cn2)C1 (configuration not stated),"inconclusive: 12.6 µM [inhibitor, partial curve, poor fit]"
17,Cc1cccc(NC(=O)c2ccc(C3SCC(=O)N3CCc3ccccc3)cc2)c1C (configuration not stated),"inconclusive: 32.6 µM [inhibitor, single point]"
18,CC(=O)[C@@]1(O)CC[C@H]2[C@@H]3C[C@H](C)C4=CC(=O)CC[C@]4(C)[C@H]3CC[C@@]21C,"inconclusive: 29.1 µM [inhibitor, single point]"
19,CCc1ccc(OCC(=O)NNC(=O)Cc2ccc(S(=O)(=O)N3CCOCC3)s2)cc1,inactive
20,COc1ccc(C(=O)NCCc2ccccc2)cc1[N+](=O)[O-],"inconclusive: 1.26 µM [inhibitor, single point]"
21,CC(C)CNC(=O)c1ccccc1NC(=O)c1ccc(CSc2ccccc2)cc1,inactive
